This is an account of results in the supplement of paper PMC12578635.

The other results are listed elsewhere or left out. No stated cut-off is given here; in the data, active = 150% or more and inactive = the rest. Most values come without repeats; read them as rough.

The subject of the assay is Staphylococcus aureus JE2-lux inside RAW 264.7 macrophages. As to the kind of experiment: intracellular bacterial bioluminescence relative to DMSO vehicle; higher = higher intracellular bacterial metabolic activity. The settings on record: 10 µM; treatment time 4 h; gentamicin 50 µg/ml. The method, then: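 RAW 264.7 macrophages infected with bioluminescent MRSA JE2-lux (MOI 100) were dispensed into 384-well plates with 10 µM compound in the presence of 50 µg/ml gentamicin. After 4 h at 37 °C, bacterial bioluminescence (a proxy for intracellular bacterial metabolic activity) and host cell viability (CellTiter-Fluor) were read and normalised to 0.1% DMSO vehicle controls. Single-pass screen of the UNC CICBDD kinase-targeted library (>4,700 compounds).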
On to `Cc1cc2c(c(=O)n1CCO)C(c1cccc(F)c1)C(C#N)=C(N)O2` (centres undefined), for which the intracellular bacterial bioluminescence was inactive: 103%. `Cn1c(=O)cc2c3c(c(Nc4ccccc4)ccc31)C(=O)c1ccccc1-2`: the intracellular bacterial bioluminescence was inactive: 106%. Next, `COc1cc(/C=C2\SC(=S)N(c3ccc(O)cc3)C2=O)cc(OC)c1OC`: inactive: 82.7%; `Cc1cccc(Cn2c(N(C)Cc3ccccc3)nc3c2c(=O)[nH]c(=O)n3C)c1`: inactive: 79.4%. As to `CCN1CCN(c2nn3c(NC(C)(C)C)c(-c4ccc(Cl)cc4)nc3s2)CC1`, the intracellular bacterial bioluminescence is inactive: 86.1%. Under `COc1ccc(S(=O)(=O)Nc2ccc(N3CCCN(c4ncccn4)CC3)cc2C(=O)O)cc1` stands inactive: 97.6%; under `COC(=O)c1c(NC(=O)Nc2c(-c3cccnc3)[nH]c3ccc(F)cc23)sc2c1CCCC2`, inactive: 66.1%. As for `CCCNC(=O)Cn1nc(-c2ccc(C)cc2)c2cnc3ccc(CC)cc3c21`, the intracellular bacterial bioluminescence was inactive: 87.9%.

As to `COCCNc1c(-c2ccc(OC)c(O)c2)nc2sc3cc(Cl)ccc3n12`, the intracellular bacterial bioluminescence was inactive: 90.6%.

In the case of `O=C(c1ncoc1-c1ccc(F)cc1)N1CCC2(CC1)C(=O)NCN2c1ccccc1`, the intracellular bacterial bioluminescence is inactive: 107%. For the molecule `O=C(NCc1cccnc1)c1cnn2c(C(F)(F)F)cc(-c3ccccc3)nc12`, the intracellular bacterial bioluminescence was inactive: 79.5%. Next, `CCOC(=O)c1ccc(Nc2nc(N)c(C(=O)c3cccc(Cl)c3)s2)cc1`: inactive: 89.4%; `Clc1cccc2nc3n(c12)CCN(Cc1ccccc1)C3`: inactive: 86.5%.

As to `CC1(C)COc2ccc(NC(=O)Cc3cccs3)cc2NC1=O`, the intracellular bacterial bioluminescence was inactive: 100%. Consider `Cn1c(=O)[nH]c(=O)c2cnc(-c3ccncc3)nc21`, for which the intracellular bacterial bioluminescence is inactive: 124%. In the case of `O=C(Cc1ccccc1)NN1C(=O)/C(=C/C=C/c2ccccc2)SC1=S`, the intracellular bacterial bioluminescence is inactive: 85.4%. For `Nc1ncnc2c1c1nc3ccccc3nc1n2CCc1ccccc1`, the intracellular bacterial bioluminescence is inactive: 147%. Consider `CS(=O)(=O)Nc1nc2ccc(NC(=O)c3cccnc3)cc2s1`, for which the intracellular bacterial bioluminescence was inactive: 114%. Consider `CS(=O)CCNC(=O)Nc1cccc2ccccc12` (centres undefined), for which the intracellular bacterial bioluminescence is inactive: 104%. As to `CCc1ccccc1NC(=O)NC1CC2CCCC(C1)N2Cc1ccccc1` (centres undefined), the intracellular bacterial bioluminescence is inactive: 111%. Next, `O=C(NC1CCCC1)c1cnc(N2CCCCC2)c2ccccc12`: inactive: 104%. In the case of `CCC(Sc1nncn1C)C(=O)Nc1nnc(-c2ccc(F)cc2)s1` (centres undefined), the intracellular bacterial bioluminescence was inactive: 108%.

`CC1CC(C)CN(S(=O)(=O)c2ccc(C(=O)Nc3sccc3C(N)=O)cc2)C1` (centres undefined): the intracellular bacterial bioluminescence is inactive: 89.9%. With `COc1ccc(OC)c2sc(NNC(=O)c3ccc(S(=O)(=O)N(C)C)cc3)nc12`, the intracellular bacterial bioluminescence was inactive: 110%. As to `CCC(=O)Nc1c(C(=O)OC)sc2ccccc12`, the intracellular bacterial bioluminescence was inactive: 109%. Regarding `c1ccc(NCc2nnc3c(Nc4ccccc4)nc4ccccc4n23)cc1`, the intracellular bacterial bioluminescence is inactive: 129%. Turning to `Cc1nc2sc(C(c3ccco3)N3CC(C)CC(C)C3)c(O)n2n1` (centres undefined), the intracellular bacterial bioluminescence was inactive: 97.3%. Consider `CC1CCCN(S(=O)(=O)c2ccc(C(=O)/C(C#N)=C3\Nc4ccccc4N3C)cc2)C1` (centres undefined), for which the intracellular bacterial bioluminescence was inactive: 105%. Take `Cc1ccc(Cl)cc1NC(=O)NCCCn1c(C(F)(F)F)nc2cccnc21`: the intracellular bacterial bioluminescence was inactive: 79%.

As to `Cc1nnc(NC(=O)CSc2nnc(CNC(=O)c3ccco3)o2)s1`, the intracellular bacterial bioluminescence is inactive: 103%. Under `CCCN1CCN(C(=O)Cn2c(C)nc3onc(C)c3c2=O)CC1` stands inactive: 108%. For the molecule `Cc1sc2nc(C)n(C3CCN(C(=O)Cc4ccsc4)CC3)c(=O)c2c1C`, the intracellular bacterial bioluminescence is inactive: 98.6%. Turning to `CCOc1ccc(Nc2c(CC)c(C)c(C#N)c3nc4ccccc4n23)cc1`, the intracellular bacterial bioluminescence was inactive: 101%. For `NC(=O)CSc1cn(Cc2ccc(Cl)cc2)c2ccccc12`, the intracellular bacterial bioluminescence is inactive: 56.6%. For `c1cncc(CSc2ncnc3c2sc2nc4ccccc4cc23)c1`, the intracellular bacterial bioluminescence was inactive: 117%. Consider `CCN1CCCC1CNCc1cc2c(C)cc(C)cc2n2c(=O)n(C)nc12` (centres undefined), for which the intracellular bacterial bioluminescence is inactive: 89.6%. As to `O=C(Nc1nc2ccc3ccccc3c2s1)c1cccc(N2C(=O)CCC2=O)c1`, the intracellular bacterial bioluminescence was inactive: 88.6%. `COc1cccc(/N=C2\NC(=O)/C(=C3/C(=O)Nc4ccccc43)S2)c1`: the intracellular bacterial bioluminescence is inactive: 85.2%. `Cn1cnc2cc(-c3noc(CNC(=O)C(c4ccccc4)c4ccccc4)n3)ccc21`: the intracellular bacterial bioluminescence is inactive: 97.8%.

As to `Cc1cc(NC(=O)CSc2c(C)[nH]c3ccccc23)no1`, the intracellular bacterial bioluminescence is inactive: 98.5%. Under `O=C1CC(Nc2ccc(N3CCOCC3)cc2)C(=O)N1c1ccc(Cl)c(C(F)(F)F)c1` (centres undefined) stands inactive: 110%; under `CCN(CC)CCNC(=O)c1cc2cc([NH+]([O-])O)ccc2oc1=O` (centres undefined), inactive: 108%; under `O=C(CC(=O)N/N=C1\C(=O)Nc2ccccc21)N/N=C1\C(=O)Nc2ccccc21`, inactive: 79%. With `COc1cccc(C(=O)COC(=O)c2cc3cc(Br)cc(OC)c3oc2=O)c1`, the intracellular bacterial bioluminescence was inactive: 120%.

As to `Cc1cc(SCC(=O)Nc2ccccc2)n2c(nc3ccccc32)c1C#N`, the intracellular bacterial bioluminescence is inactive: 92.5%. Next, `Cc1ccc2cc(CN(Cc3ccccc3)C(=O)c3cccnc3)c(Cl)nc2c1`: inactive: 78.9%. For the molecule `C=CCn1/c(=N/C(=O)c2nc3ccccc3s2)sc2cc(NC(C)=O)ccc21`, the intracellular bacterial bioluminescence is inactive: 115%. As to `COc1ccc(N2CCN(c3cc(C)nc4nncn34)CC2)cc1`, the intracellular bacterial bioluminescence was inactive: 127%. As for `COC(=O)c1cccc(NC(=O)N2CCC(c3nnc(C(=O)Nc4ccccc4F)s3)CC2)c1`, the intracellular bacterial bioluminescence is inactive: 58.5%. Next, `CCOC(=O)c1cc(C)nc2c1c(=O)n(Cc1cccc(C(F)(F)F)c1)c(=O)n2C`: inactive: 105%; `CCOc1ccc(CCNC(=O)COc2ncnc3oc(C)c(C)c23)cc1OCC`: inactive: 50.1%.

Take `Cc1ccc(/C=C(/C#N)C(=O)Nc2sc3c(c2C(N)=O)CCCC3)o1`: the intracellular bacterial bioluminescence was inactive: 85.7%.

As to `CCn1c(SCC(=O)Nc2cc(C)on2)nc2c(c1=O)SC(C)C2` (centres undefined), the intracellular bacterial bioluminescence is inactive: 73.3%. For `CCc1ccc(N2C(=O)SC(Nc3ccc(S(N)(=O)=O)cc3)C2=O)cc1` (centres undefined), the intracellular bacterial bioluminescence was inactive: 105%. `CCOC(=O)c1sc2nc(NC(=O)c3ccccc3OC)sc2c1C`: the intracellular bacterial bioluminescence was inactive: 67.4%. For the molecule `CCOC(=O)c1cnc(SCC(=O)c2ccc(F)cc2)nc1N`, the intracellular bacterial bioluminescence is inactive: 104%. Next, `Cc1occc1-c1nnc(SCC(=O)NCCc2nc3ccccc3[nH]2)o1`: inactive: 115%.

As for `COc1ccc(C(=O)CSc2nc3[nH]ncc3c(=O)[nH]2)cc1`, the intracellular bacterial bioluminescence was active: 151%. For `CC(CNc1nccn(-c2ccc3c(c2)OCO3)c1=O)c1ccccc1` (centres undefined), the intracellular bacterial bioluminescence was inactive: 66%.
